# Experimental data taken from PubChem BioAssay AID587 (National Center for Advancing Translational Sciences (NCATS), 2007).
# About 35 (0.06%) of roughly 59,000 compounds were called active. Inconclusive results, whose numbers are uncertain, are shown with a selection of clear calls. Cut-off read from the data, not from the text of the source: active = max dye-equivalent concentration above about 10 nM; inconclusive = between about 1.1 nM and that limit; inactive = weaker than that.
# Test: qHTS Assay for Spectroscopic Profiling in Texas Red Spectral Region
# Conditions: Compound fluorescence, Texas Red channel, 547/618 nm; hits give high values
# Excerpt: NIH Molecular Libraries Screening Centers Network [MLSCN] NIH Chemical Genomics Center [NCGC] […] Occasionally, the artifactual effect may originate from the compound#s own spectral or other biophysical properties which generally tend to track its assay concentration. Pre-screening/profiling the library with respect to the compounds# spectral properties should help one exclude false positives early on. While the most informative fluorescent profiling data set is obtained by performing a full excitation and emission scan of each well by using a monochromator-based plate reader, such an approach is practical only on a very limited scale as scanning each well requires long time. An alternative approach, applied here, is to perform plate reader scans using selected excitation and emission wavelength pairs to generate a multidimensional relational database that correlates compound concentration and the respective relative fluorescence intensity at a given wavelength set. A standard curve of Texas Red (TR) present on each plate as six-point concentration series, was used to compute a normalized fluorescence response, termed dye-equivalent concentration, for each compound at each concentration.
# NCGC Assay Protocol Summary: Buffer: 100 mM Tris buffer, pH 8.0 Dye standard plate: The wells in columns 1 through 4 of a Kalypsys polypropylene 1536-well compound plate were filled with standard solutions of fluorophore corresponding to the spectral region of interest. Solutions of TR were placed in the following wells: U1, V1: 3 mM, U2, V2: 300 uM, U3, V3: 30 uM, U4, V4: zero (DMSO), W1, X1: 3 uM, W2, X2: 900 nM, W3, X3: 300 nM, W4, X4: zero (DMSO). Assay Steps: Six uL of buffer were dispensed to 1536-well Greiner black plates. Compounds and dye standards (23 nL) were transferred via Kalypsys PinTool. The plates were incubated for 15 min at room temperature, and then read on ViewLux (Perkin-Elmer) High-throughput CCD imager using 547 nm and 618 nm excitation and emission filter set. Keywords: NIH Roadmap, MLSCN, MLI, MLSMR, qHTS, NCGC, Texas Red, Fluorescent Profiling.
row,SMILES,max dye-equivalent concentration
1,O=c1c2[nH]c3ccc(F)cc3c2ncn1CCCn1ccnc1,inconclusive: 1.5 nM
2,C=C1CC[C@@H](O)C/C1=C/C=C1\CCC[C@]2(C)[C@@H]1CC[C@H]2[C@@H](C)/C=C\[C@@H](C)C(C)C,inactive
3,Nc1cc(C(=O)O)ccc1Nc1ccc(F)c(F)c1,inconclusive: 1.2 nM
4,CCC1CCCCN1C(=O)CSc1nnc(-c2ccco2)o1 (stereo unspecified),inconclusive: 1.8 nM
5,COc1cc(C(c2nnnn2C2CCCC2)N2CCN(C)CC2)cc(OC)c1OC (stereo unspecified),inconclusive: 2.2 nM
6,NCCCCNCCCN,inconclusive: 1.1 nM
7,CCC(=O)Nc1ccccc1Oc1ccccc1,inconclusive: 1.9 nM
8,O=C(CCn1nnc(-c2cccs2)n1)N1CCc2ccccc2C1,inconclusive: 1.4 nM
9,CC(C)c1ccccc1N1CC(C(=O)O)CC1=O (stereo unspecified),inconclusive: 1.3 nM
10,CC(C)Nc1nc(NC(C)C)nc(C(N)=O)n1,inconclusive: 1.1 nM
11,COc1cc(S(=O)(=O)n2nnc3ccccc32)c(OC)cc1Cl,inconclusive: 1.2 nM
12,COc1cccc(-n2nnc3c(=O)n(Cc4c(F)cccc4Cl)cnc32)c1,inconclusive: 1.8 nM
13,O=C(CCc1ccccc1)Nc1nc2nc(-c3ccccc3)cc(=O)n2[nH]1,inconclusive: 1.6 nM
14,CCc1ccc2[nH]c(=O)c(CN(CCN3CCCC3)C(=O)NC3CCCCC3)cc2c1,inactive
15,Cc1cc(C)nc(NC2=NCC(=O)N2c2cc(Cl)cc(Cl)c2)n1,inconclusive: 1.2 nM
16,CCOC(=O)c1ccc(NC(=O)CSc2ncccn2)cc1,inconclusive: 2.1 nM
17,Cc1ccc(-c2nc(C#N)c(NCc3ccco3)o2)cc1,inconclusive: 1.5 nM
18,COc1cccc(C(=O)NC2=NCCS2)c1,inconclusive: 1.1 nM
19,COc1cc(NC(=O)c2ccco2)c(OC)cc1NC(=O)CCC(=O)Nc1cc(C)cc(C)c1,inconclusive: 1.8 nM
20,CN(C)c1ccc(-c2cc(NCc3ccccc3)ncn2)cc1,inactive
21,C[N+]1(CCNC(=O)/C=N/O)CCCCC1,inactive
22,Cc1ccc(S(=O)(=O)NC2=NCN(C3CCN(Cc4ccccc4)CC3)CN2)cc1,inconclusive: 1.8 nM

row,SMILES,max dye-equivalent concentration
1,CCCc1oc2c(c(=O)c1CC)C(=O)CC(C)(C)C2,inconclusive: 2.7 nM
2,COc1ccc(N2CCN(C(=O)CCCC3=NS(=O)(=O)c4ccccc4N3)CC2)cc1,inconclusive: 1.1 nM
3,CC12CC(NC(=O)N1c1cccc(C(=O)N3CCN(c4ccccc4F)CC3)c1)c1ccccc1O2 (stereo unspecified),inconclusive: 1.1 nM
4,Cc1ccc2nc(Nc3ncc4c(n3)CCCC4=O)nc(C)c2c1,inconclusive: 3.7 nM
5,CCSc1nnc(Nc2ccccc2)s1,inconclusive: 1.7 nM
6,CCOc1ccc(N(CC(=O)NC(C)(C)C)C(=O)c2ccco2)cc1,inconclusive: 1.8 nM
7,Fc1ccc2c(c1)[C@H]1OCC[C@H]1[C@@H](c1ccco1)N2,inconclusive: 1.8 nM
8,Nc1cc2c(nc3c4ccccc4c(N)cc3[n+]2-c2cccc3ccccc23)c2ccccc12 (tested in a mixture with another compound),inconclusive: 3.3 nM
9,CCOC(=O)c1ccc(NC(=O)CSc2n[nH]c(-c3ccncc3)n2)cc1,inconclusive: 1.2 nM
10,CCNc1ncc2nc(C)c(=O)n(Cc3cccs3)c2n1,inactive
11,CC1(C)CC(=O)C2=C(C1)N=C1SCCC(=O)N1C2c1ccccc1 (stereo unspecified),inconclusive: 2.2 nM
12,Cc1ccc(-c2cnc(NC(=O)CCC(=O)N3CCCCC3)n2C)cc1,inconclusive: 1.2 nM
13,CCOC(=O)C1CCCN(C(=O)c2ccccc2SCCOC)C1 (stereo unspecified),inconclusive: 1.1 nM
14,CCOC(=O)c1sc2ncn(C(CC)C(=O)OCC)c(=O)c2c1C (stereo unspecified),inconclusive: 1.4 nM
15,Cc1nn(-c2ccccc2)c2[nH]c(=O)c(CNCCN3CCOCC3)cc12,inconclusive: 1.1 nM
16,CC(C)C(=O)Nc1cccc(C(=O)NCc2ccc3c(c2)OCO3)c1,inconclusive: 1.4 nM
17,COc1ccc2c(c1)c(C(=O)OCCN(C)C)c(C)n2C,inconclusive: 1.3 nM
18,Cc1ccc(C)c(NC(=O)c2ccccn2)c1,inconclusive: 1.3 nM
19,CC(C)OC(=O)CSc1nnnn1-c1ccc2c(c1)OCCO2,inconclusive: 1.7 nM
20,O=c1c(-c2ccc(Cl)cc2)nc2cnc(N3CCOCC3)nc2n1C1CC1,inactive
21,O=c1cc(Nc2ccc3c(c2)OCCO3)[nH]c(=O)n1C1CCCCC1,inconclusive: 1.2 nM
22,Cc1cc(C)nc(-n2nc(C)cc2Nc2ccccc2)n1,inconclusive: 1.3 nM

row,SMILES,max dye-equivalent concentration
1,CCCc1cc(=O)n2[nH]c(C)cc2n1,inconclusive: 1.1 nM
2,COc1ccc(-c2noc(CN3CCC(Cc4ccccc4)CC3)n2)cc1,inconclusive: 1.8 nM
3,COc1ccc(C(C)C)cc1S(=O)(=O)NCc1ccccn1,inconclusive: 1.8 nM
4,CCOc1ccccc1NC(=O)CN(c1ccc(OC)cc1)S(=O)(=O)c1c(C)noc1C,inconclusive: 1.1 nM
5,O=C(O)C1CCN1C1CCCCC1 (stereo unspecified),inconclusive: 1.1 nM
6,COC(=O)CCCC(=O)Nc1ccc(Cl)c(Cl)c1,inconclusive: 1.2 nM
7,O=C(O)C1CC=CCC1C(=O)Nc1ccc(S(=O)(=O)N2CCCc3ccccc32)cc1 (stereo unspecified),inconclusive: 2.5 nM
8,Cc1cccc(C)c1OCc1nnc(SCC(=O)NCc2ccccc2)o1,inconclusive: 2 nM
9,O=C(OCC(=O)c1cccs1)C1=COCCO1,inconclusive: 1.2 nM
10,Cc1cc(C)n2nc(SC(C)C(=O)NCc3ccco3)nc2n1 (stereo unspecified),inconclusive: 1.9 nM
11,COc1ccccc1C1C(C#N)=C(N)Oc2cc(C)n(CCCn3ccnc3)c(=O)c21 (stereo unspecified),inconclusive: 1.5 nM
12,O=C(COc1ccc2c(c1)OCO2)Nc1ccc2c(c1)oc1ccccc12,inconclusive: 1.4 nM
13,CN(C)CCNc1oc(COc2ccc(-c3ccccc3)cc2)nc1C#N,inconclusive: 1.1 nM
14,Cc1ccc(S(=O)(=O)N(C)Cc2ccc(-c3nnco3)cc2)cc1,inconclusive: 2 nM
15,CC(C)Oc1ccc(C2C(C(=O)c3ccco3)=C(O)C(=O)N2Cc2cccnc2)cc1 (stereo unspecified),inconclusive: 1.1 nM
16,C=CCN1C(=O)C2(C(C#N)=C(N)Oc3n[nH]c(CCC)c32)c2ccccc21 (stereo unspecified),inconclusive: 2.9 nM
17,CCNC(=O)[C@@H]1O[C@@H](n2cnc3c(N)nc(NCCc4ccc(CCC(=O)O)cc4)nc32)[C@H](O)[C@@H]1O,inconclusive: 1.2 nM
18,Cc1nc(SCC(=O)NCCc2ccccc2)n[nH]1,inconclusive: 1.8 nM
19,COC(=O)[C@H](CCSC)NC(=O)NCCC1=CCCCC1,inconclusive: 1.2 nM
20,O=c1c(O)c(-c2cccs2)oc2ccccc12,inconclusive: 1.2 nM
21,Cc1ccc(S(=O)(=O)Nc2ccc(S(=O)(=O)N3CCCC3)cc2)cc1,inconclusive: 1.5 nM
22,Cc1nnc(NC(=O)c2ccc(-c3cccc(C(F)(F)F)c3)o2)s1,inconclusive: 1.1 nM

row,SMILES,max dye-equivalent concentration
1,O=C(Nc1ccc(N2CCN(C(=O)c3ccco3)CC2)cc1)c1ccccc1F,inconclusive: 1.2 nM
2,Cc1ccccc1Cn1cc(NC(=O)c2cc(-c3cccs3)on2)cn1,inconclusive: 1.1 nM
3,Cc1cc(N2CCN(c3ccccc3)CC2)n2c(n1)nc1ccccc12,inconclusive: 1.1 nM
4,Cn1cnnc1SCC(=O)N1c2ccccc2-c2c(ssc2=S)C1(C)C,inconclusive: 1.2 nM
5,COC(=O)c1cc(NC(=O)CN2CCC(C(N)=O)(N3CCCCC3)CC2)cc(C(=O)OC)c1,inconclusive: 1.2 nM
6,COc1ccc(N(C(=O)c2ccc(Br)o2)C2C=CS(=O)(=O)C2)cc1 (stereo unspecified),inconclusive: 1.3 nM
7,CC(NC(=O)CSc1nc2c(cc1C#N)CN(C)CC2)c1ccccc1 (stereo unspecified),inconclusive: 1.2 nM
8,O=C(CN(C(=O)CCC(=O)Nc1ccccn1)c1ccc2c(c1)OCO2)NCc1ccco1,inconclusive: 1.3 nM
9,COc1ccc(N2CCN(c3nc(NCCO)nc(N4CCOCC4)n3)CC2)cc1,inconclusive: 1.4 nM
10,Cc1nc2cnc(N3CCN(C)CC3)nc2n(CCC#N)c1=O,inactive
11,CC(C)COc1ccc(-c2nnn(CC(=O)N3CCCC3)n2)cc1,inconclusive: 1.1 nM
12,CCOC(=O)c1c(C)[nH]c(C(=O)OCc2c(C)noc2C)c1C,inconclusive: 2 nM
13,COC(=O)CSc1nc2cc(C)cc(C)c2cc1C#N,inconclusive: 2.6 nM
14,CC1CCN(CCCNC(=O)COc2cc(=O)n(C)c3ccccc23)CC1,inconclusive: 1.8 nM
15,Cc1cccc2cc3c(NC(=O)C(C)C)nn(C)c3nc12,inconclusive: 1.2 nM
16,CSCCC(NC(=O)C1CCC(C)CC1)C(=O)N1CCN(c2ccccn2)CC1 (stereo unspecified),inconclusive: 1.5 nM
17,c1ccc2c(c1)oc1c(N3CCOCC3)ncnc12,inconclusive: 1.5 nM
18,Cc1ccc(S(=O)(=O)N2CCCC2)cc1S(=O)(=O)N1CCCC1,inconclusive: 1.1 nM
19,Cc1ccc(/C=c2\s/c(=C(/C#N)C(=O)N3CCCC3)n(Cc3ccco3)c2=O)s1,inconclusive: 2.1 nM
20,CCOc1ccc2[nH]c(=O)c(CN(Cc3cccs3)Cc3nnnn3C(C)(C)CC)cc2c1,inconclusive: 1.6 nM

# Exported bar-delimited: 7 of the compounds above.
row | SMILES | max dye-equivalent concentration
8 | O=C(CCn1nnc(-c2cccs2)n1)N1CCc2ccccc2C1 | inconclusive: 1.4 nM
9 | CC(C)c1ccccc1N1CC(C(=O)O)CC1=O (stereo unspecified) | inconclusive: 1.3 nM
10 | CC(C)Nc1nc(NC(C)C)nc(C(N)=O)n1 | inconclusive: 1.1 nM
11 | COc1cc(S(=O)(=O)n2nnc3ccccc32)c(OC)cc1Cl | inconclusive: 1.2 nM
12 | COc1cccc(-n2nnc3c(=O)n(Cc4c(F)cccc4Cl)cnc32)c1 | inconclusive: 1.8 nM
13 | O=C(CCc1ccccc1)Nc1nc2nc(-c3ccccc3)cc(=O)n2[nH]1 | inconclusive: 1.6 nM
14 | CCc1ccc2[nH]c(=O)c(CN(CCN3CCCC3)C(=O)NC3CCCCC3)cc2c1 | inactive
